In the supplement of paper PMC12067093, “Discovery and optimisation of a covalent ligand for TRIM25 and its application to targeted protein ubiquitination” (Chemical Science, 2025):
The other results are listed elsewhere or left out.

Amino acid sequences for entries named in this document (tags omitted). A change or cut given only in a name is not applied to a line headed by its entry.
UniProt Q96L50: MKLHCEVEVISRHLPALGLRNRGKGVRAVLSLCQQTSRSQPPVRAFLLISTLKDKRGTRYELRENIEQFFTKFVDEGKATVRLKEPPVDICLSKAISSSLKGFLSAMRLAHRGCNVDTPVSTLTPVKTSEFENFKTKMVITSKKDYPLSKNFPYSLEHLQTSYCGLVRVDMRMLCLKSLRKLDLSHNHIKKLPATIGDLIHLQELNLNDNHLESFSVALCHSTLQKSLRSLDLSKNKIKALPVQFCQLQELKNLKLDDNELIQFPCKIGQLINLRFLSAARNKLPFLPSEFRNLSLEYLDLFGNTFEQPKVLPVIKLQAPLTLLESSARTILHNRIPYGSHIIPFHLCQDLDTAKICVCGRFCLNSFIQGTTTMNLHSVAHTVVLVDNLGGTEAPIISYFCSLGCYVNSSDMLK
UniProt Q32MZ4: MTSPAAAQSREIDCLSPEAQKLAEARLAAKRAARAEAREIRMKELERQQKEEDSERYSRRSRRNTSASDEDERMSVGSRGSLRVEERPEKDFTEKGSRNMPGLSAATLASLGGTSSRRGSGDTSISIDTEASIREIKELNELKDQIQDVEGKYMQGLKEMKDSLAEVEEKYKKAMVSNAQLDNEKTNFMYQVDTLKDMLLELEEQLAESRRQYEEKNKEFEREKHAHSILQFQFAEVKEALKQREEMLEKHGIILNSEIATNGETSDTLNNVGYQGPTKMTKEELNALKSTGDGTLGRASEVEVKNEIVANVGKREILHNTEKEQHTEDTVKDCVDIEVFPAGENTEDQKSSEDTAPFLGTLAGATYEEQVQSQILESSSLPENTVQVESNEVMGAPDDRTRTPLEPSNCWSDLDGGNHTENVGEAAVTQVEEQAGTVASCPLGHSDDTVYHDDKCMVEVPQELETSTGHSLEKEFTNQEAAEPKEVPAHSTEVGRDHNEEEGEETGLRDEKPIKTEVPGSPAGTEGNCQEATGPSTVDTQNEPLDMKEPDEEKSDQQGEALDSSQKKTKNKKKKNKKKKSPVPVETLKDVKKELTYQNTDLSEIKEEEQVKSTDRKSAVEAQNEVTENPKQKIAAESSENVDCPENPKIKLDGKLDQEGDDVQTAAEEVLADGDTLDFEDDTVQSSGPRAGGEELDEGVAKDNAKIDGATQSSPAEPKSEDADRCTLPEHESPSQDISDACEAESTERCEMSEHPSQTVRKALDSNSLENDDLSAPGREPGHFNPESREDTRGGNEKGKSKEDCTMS
UniProt Q9H9A6: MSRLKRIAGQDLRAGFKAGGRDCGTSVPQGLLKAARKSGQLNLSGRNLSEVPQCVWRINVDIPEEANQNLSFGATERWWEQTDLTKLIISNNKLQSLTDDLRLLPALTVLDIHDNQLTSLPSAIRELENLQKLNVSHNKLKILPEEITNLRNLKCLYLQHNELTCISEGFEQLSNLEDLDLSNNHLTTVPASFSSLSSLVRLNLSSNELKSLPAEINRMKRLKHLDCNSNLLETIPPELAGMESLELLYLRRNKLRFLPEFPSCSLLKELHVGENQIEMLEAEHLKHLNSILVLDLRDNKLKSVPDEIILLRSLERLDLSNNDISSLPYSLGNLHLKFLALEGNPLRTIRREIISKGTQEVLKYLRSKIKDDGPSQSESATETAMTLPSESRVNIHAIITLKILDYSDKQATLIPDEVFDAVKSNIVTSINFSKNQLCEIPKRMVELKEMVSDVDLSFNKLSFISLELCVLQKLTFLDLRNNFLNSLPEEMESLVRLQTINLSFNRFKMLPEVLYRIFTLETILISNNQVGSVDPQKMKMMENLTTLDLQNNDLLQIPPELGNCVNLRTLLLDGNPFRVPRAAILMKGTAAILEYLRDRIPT
UniProt P36776: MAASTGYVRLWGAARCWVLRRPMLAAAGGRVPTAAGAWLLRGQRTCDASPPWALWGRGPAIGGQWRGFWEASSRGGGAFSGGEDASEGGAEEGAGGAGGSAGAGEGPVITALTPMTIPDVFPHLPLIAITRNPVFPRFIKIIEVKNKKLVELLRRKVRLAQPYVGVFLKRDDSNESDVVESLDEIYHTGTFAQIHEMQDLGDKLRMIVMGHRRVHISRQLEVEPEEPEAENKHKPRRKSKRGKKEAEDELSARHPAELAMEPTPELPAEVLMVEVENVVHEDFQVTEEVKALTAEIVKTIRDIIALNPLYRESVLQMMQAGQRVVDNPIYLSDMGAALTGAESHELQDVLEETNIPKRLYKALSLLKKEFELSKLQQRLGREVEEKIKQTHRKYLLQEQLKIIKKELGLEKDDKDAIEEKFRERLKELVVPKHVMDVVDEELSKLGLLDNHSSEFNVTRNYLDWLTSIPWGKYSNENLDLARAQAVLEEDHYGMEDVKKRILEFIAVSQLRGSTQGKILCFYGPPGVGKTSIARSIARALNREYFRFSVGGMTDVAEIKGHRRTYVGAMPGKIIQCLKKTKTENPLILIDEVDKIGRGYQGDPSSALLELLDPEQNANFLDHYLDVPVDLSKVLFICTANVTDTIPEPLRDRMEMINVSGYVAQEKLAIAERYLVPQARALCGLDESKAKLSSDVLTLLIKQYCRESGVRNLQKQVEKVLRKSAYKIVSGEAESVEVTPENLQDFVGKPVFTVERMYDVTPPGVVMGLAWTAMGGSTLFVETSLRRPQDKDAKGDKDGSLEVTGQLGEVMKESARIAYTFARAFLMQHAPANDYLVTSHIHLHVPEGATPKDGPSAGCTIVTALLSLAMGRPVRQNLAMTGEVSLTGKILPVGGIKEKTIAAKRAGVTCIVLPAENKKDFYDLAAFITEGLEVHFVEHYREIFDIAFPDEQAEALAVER
UniProt Q96PV6, whole entry, looked up: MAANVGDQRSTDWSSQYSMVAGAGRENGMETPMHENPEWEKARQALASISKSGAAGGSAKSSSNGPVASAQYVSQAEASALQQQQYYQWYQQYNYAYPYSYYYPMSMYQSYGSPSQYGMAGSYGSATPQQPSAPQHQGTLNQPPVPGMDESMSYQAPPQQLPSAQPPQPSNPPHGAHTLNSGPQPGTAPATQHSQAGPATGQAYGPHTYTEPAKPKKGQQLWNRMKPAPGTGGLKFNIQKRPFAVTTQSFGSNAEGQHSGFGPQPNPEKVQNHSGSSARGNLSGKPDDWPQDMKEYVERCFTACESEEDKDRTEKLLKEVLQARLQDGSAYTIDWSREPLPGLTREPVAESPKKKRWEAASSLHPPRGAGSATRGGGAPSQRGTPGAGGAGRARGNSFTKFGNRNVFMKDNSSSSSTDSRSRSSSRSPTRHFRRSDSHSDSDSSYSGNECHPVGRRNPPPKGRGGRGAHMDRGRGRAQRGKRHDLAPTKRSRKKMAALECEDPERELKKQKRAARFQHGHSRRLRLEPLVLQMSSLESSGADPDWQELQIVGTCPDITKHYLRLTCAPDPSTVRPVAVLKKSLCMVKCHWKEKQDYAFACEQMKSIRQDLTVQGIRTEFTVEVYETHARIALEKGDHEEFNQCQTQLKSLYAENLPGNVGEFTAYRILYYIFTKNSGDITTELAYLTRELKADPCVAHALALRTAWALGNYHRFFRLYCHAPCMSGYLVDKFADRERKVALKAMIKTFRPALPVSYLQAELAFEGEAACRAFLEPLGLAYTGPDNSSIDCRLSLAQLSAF
UniProt Q96CX6, whole entry, looked up: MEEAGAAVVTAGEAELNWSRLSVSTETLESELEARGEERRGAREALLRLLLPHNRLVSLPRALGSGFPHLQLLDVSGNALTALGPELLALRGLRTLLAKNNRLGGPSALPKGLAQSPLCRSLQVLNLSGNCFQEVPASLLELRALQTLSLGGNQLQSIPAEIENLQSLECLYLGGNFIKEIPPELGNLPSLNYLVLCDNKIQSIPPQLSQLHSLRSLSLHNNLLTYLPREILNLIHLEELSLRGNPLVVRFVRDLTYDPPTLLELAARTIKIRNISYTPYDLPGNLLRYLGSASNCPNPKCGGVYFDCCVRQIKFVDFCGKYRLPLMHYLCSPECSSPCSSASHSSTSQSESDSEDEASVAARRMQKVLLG
UniProt Q7L5N7: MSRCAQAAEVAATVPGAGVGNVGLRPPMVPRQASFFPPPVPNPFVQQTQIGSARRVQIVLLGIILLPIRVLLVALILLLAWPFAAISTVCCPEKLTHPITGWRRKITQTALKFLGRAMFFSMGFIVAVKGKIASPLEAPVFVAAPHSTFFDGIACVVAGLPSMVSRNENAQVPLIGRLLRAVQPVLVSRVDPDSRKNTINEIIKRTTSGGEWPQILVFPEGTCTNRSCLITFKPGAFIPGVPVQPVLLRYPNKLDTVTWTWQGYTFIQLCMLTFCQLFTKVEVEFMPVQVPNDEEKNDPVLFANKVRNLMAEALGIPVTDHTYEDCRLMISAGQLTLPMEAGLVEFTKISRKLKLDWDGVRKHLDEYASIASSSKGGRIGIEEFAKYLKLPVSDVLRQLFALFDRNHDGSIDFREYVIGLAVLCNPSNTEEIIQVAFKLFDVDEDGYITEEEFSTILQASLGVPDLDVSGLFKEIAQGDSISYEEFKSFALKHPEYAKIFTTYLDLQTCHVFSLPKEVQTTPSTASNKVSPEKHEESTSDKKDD
UniProt Q9UK45: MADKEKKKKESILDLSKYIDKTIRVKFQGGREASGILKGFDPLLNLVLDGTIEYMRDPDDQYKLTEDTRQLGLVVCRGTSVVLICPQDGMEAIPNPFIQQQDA
UniProt Q5TKA1: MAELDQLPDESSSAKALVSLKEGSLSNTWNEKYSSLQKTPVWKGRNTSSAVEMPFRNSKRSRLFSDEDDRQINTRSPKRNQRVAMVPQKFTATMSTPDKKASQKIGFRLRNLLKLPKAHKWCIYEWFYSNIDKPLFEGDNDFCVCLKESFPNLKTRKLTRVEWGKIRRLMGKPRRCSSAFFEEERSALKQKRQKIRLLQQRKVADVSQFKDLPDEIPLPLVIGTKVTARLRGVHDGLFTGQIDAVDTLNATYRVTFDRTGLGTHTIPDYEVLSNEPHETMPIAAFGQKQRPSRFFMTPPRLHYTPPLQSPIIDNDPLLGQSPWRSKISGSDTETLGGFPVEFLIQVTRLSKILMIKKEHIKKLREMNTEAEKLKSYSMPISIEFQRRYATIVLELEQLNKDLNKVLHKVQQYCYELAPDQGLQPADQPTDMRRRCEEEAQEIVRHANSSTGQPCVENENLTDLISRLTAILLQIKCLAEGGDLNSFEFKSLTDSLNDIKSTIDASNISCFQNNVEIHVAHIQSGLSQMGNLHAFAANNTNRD
UniProt Q6UWE0: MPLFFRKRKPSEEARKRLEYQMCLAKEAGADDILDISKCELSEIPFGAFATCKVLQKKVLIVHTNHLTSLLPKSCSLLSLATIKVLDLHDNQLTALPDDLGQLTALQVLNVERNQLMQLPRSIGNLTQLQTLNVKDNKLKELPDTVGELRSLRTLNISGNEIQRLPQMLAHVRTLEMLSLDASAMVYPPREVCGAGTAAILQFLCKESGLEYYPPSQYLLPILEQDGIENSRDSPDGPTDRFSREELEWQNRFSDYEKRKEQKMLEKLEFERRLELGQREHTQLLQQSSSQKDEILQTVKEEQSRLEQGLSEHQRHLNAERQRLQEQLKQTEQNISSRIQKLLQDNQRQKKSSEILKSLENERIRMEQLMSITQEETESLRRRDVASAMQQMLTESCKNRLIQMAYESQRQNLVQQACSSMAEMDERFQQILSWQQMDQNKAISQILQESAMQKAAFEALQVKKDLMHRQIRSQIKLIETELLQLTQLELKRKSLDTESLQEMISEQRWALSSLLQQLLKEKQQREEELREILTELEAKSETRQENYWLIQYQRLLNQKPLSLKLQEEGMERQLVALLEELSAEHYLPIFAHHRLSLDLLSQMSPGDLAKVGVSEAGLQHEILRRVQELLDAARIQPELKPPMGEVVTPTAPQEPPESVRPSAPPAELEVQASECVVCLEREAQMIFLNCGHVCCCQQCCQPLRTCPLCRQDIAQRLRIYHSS
UniProt P48449: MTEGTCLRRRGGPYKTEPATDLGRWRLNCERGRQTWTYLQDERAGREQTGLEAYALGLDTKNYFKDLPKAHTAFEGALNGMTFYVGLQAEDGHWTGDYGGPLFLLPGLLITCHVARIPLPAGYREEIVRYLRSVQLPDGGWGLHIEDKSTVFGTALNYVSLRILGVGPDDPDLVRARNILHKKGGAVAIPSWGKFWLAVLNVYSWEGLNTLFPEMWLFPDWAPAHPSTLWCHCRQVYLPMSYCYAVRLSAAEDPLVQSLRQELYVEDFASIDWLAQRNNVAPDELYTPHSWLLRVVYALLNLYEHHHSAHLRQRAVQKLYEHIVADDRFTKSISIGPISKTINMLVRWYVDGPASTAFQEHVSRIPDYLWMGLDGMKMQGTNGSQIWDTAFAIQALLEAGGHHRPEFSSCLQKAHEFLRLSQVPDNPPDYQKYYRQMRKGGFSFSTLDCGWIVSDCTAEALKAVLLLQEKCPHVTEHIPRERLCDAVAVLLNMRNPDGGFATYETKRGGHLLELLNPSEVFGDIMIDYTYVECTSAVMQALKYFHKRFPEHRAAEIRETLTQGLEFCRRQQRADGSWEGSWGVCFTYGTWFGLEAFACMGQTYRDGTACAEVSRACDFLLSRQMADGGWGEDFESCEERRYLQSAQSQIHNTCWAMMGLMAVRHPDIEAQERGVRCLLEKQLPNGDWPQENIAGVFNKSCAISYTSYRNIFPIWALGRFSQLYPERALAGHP

Compound: CC1Cc2ccccc2N1C(=O)C1CCCN(C1)C(=O)CCl (mixture of isomers) [TRIM25 ligand 11 (diastereomer mixture)]
Test: probe-labelled cysteine peptide fold change vs DMSO (competition) (log2 fold change); higher = less target engagement (more negative = stronger competition)
Details: THP-1, incubation time: 4 h
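Note: competitive chemoproteomic profiling in live THP-1 cells with an iodoacetamide desthiobiotin (IA-DTB) probe, comparing probe-labelled peptide intensities in compound-treated cells against DMSO-treated controls.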

Row | Target | probe-labelled cysteine peptide fold change (10 µM) | probe-labelled cysteine peptide fold change (50 µM)
1 | LRRC8C_Q8TDW0_774_GNHFEILPPELGDCR (UniProt Q8TDW0) | 0.256 | 0.0636
2 | LRR1_Q96L50_5_LHCEVEVISR (UniProt Q96L50) | 0.141 | 0.204
3 | LRRC57_Q8N9N7_128_TLSLSGNQLGALPPQLCSLR (UniProt Q8N9N7) | 0.294 | 0.14
4 | LMO7_Q8WWI1_228_DSGYGDIWCPER (UniProt Q8WWI1) | -0.0808 | -0.215
5 | LRRFIP1_Q32MZ4_726+742_CTLPEHESPSQDISDACEAESTER (UniProt Q32MZ4) | 0.365 | -0.0779
6 | LRRC59_Q96AG4_277_VTELQQQPLCTSVNTIYDNAVQGLR (UniProt Q96AG4) | -0.0377 | 0.0988
7 | LRCH1_Q9Y2L9_251_VLVIPICFR (UniProt Q9Y2L9) | -0.0102 | -0.0985
8 | LRRC40_Q9H9A6_264_FLPEFPSCSLLK (UniProt Q9H9A6) | 0.0423 | -0.114
9 | LSP1_P33241_109_QQHEGAQGALDSGEPPQCR (UniProt P33241) | 0.218 | -0.0324
10 | LIMA1_Q9UHB6_164_MENCLGESR (UniProt Q9UHB6) | -0.0922 | 0.185
11 | LDHD_Q86WU2_63_CEPPDAVVWPQNVEQVSR (UniProt Q86WU2) | -0.294 | -0.421
12 | LONP1_P36776_909_AGVTCIVLPAENK (UniProt P36776) | -0.00716 | -0.0907
13 | LPXN_O60711_199_SGLAYCPNDYHQLFSPR (UniProt O60711) | 0.0524 | 0.166
14 | LENG8_Q96PV6_723_LYCHAPCMSGYLVDK (UniProt Q96PV6) | -0.0117 | 0.103
15 | LGALS9_O00182_74_FEDGGYVVCNTR (UniProt O00182) | 0.1 | 0.199
16 | LMAN2_Q12907_107_EGSIWNHQPCFLK (UniProt Q12907) | 0.0524 | -0.0598
17 | LENG8_Q96PV6_500_MAALECEDPER (UniProt Q96PV6) | -0.0959 | -0.102
18 | LPP_Q93052_566_DFHVHCYR (UniProt Q93052) | 0.0515 | 0.134
19 | LGALS1_P09382_3_ACGLVASNLNLK (UniProt P09382) | 0.117 | 0.0383

Row | Target | probe-labelled cysteine peptide fold change (10 µM) | probe-labelled cysteine peptide fold change (50 µM)
20 | LRRFIP1_Q32MZ4_14_EIDCLSPEAQK (UniProt Q32MZ4) | -0.154 | -0.205
21 | LPCAT1_Q8NF37_330_LPADTCLLEFAR (UniProt Q8NF37) | 0.0476 | 0.018
22 | LRRC58_Q96CX6_296_YLGSASNCPNPK (UniProt Q96CX6) | -0.075 | -0.204
23 | LRRC41_Q15345_297_CAAALMASR (UniProt Q15345) | -0.0623 | -0.172
24 | LPCAT2_Q7L5N7_4_CAQAAEVAATVPGAGVGNVGLRPPMVPR (UniProt Q7L5N7) | -0.166 | -0.27
25 | LRRFIP1_Q32MZ4_456_CMVEVPQELETSTGHSLEK (UniProt Q32MZ4) | -0.102 | -0.555
26 | LSM7_Q9UK45_85_GTSVVLICPQDGMEAIPNPFIQQQDA (UniProt Q9UK45) | 0.176 | 0.28
27 | LRPPRC_P42704_952_LFECDR (UniProt P42704) | 0.348 | 0.342
28 | LIMS1_P48059_193+196_MGVPICGACR (UniProt P48059) | -0.089 | -0.114
29 | LENG8_Q96PV6_600_EKQDYAFACEQMK (UniProt Q96PV6) | -0.127 | 0.0118
30 | LRCH4_O75427_213_LDFSCNR (UniProt O75427) | -0.0947 | 0.116
31 | LIN9_Q5TKA1_176_CSSAFFEEER (UniProt Q5TKA1) | -0.103 | -0.126
32 | LRSAM1_Q6UWE0_193_EVCGAGTAAILQFLCK (UniProt Q6UWE0) | 0.0311 | -0.0122
33 | LRBA_P50851_2740_TLEGPENCLKPK (UniProt P50851) | 0.0603 | -0.0266
34 | LRRC47_Q8N1G4_224_TLDLSNNQLSEIPAELADCPK (UniProt Q8N1G4) | 0.184 | 0.159
35 | LSS_P48449_636_QMADGGWGEDFESCEERR (UniProt P48449) | -0.0668 | -0.1
36 | LPCAT2_Q7L5N7_223_TTSGGEWPQILVFPEGTCTNR (UniProt Q7L5N7) | -0.0779 | -0.245
37 | LRPPRC_P42704_721+722_AKYESDMVTGGYAALINLCCR (UniProt P42704) | -0.00502 | -0.101

Some of the entries above, reformatted.
LSS_P48449_636_QMADGGWGEDFESCEERR (UniProt P48449)
  probe-labelled cysteine peptide fold change (10 µM): -0.0668
  probe-labelled cysteine peptide fold change (50 µM): -0.1
LPCAT2_Q7L5N7_223_TTSGGEWPQILVFPEGTCTNR (UniProt Q7L5N7)
  probe-labelled cysteine peptide fold change (10 µM): -0.0779
  probe-labelled cysteine peptide fold change (50 µM): -0.245
LRPPRC_P42704_721+722_AKYESDMVTGGYAALINLCCR (UniProt P42704)
  probe-labelled cysteine peptide fold change (10 µM): -0.00502
  probe-labelled cysteine peptide fold change (50 µM): -0.101
